This passage reports log2 fold change results from the supplement of paper PMC10849652.

Chains of the proteins cited; added tags and fusions are not shown. Lines headed by an entry give the natural chain unless they say otherwise; changes in a name come on top.
UniProt Q9H4G0, whole entry, looked up: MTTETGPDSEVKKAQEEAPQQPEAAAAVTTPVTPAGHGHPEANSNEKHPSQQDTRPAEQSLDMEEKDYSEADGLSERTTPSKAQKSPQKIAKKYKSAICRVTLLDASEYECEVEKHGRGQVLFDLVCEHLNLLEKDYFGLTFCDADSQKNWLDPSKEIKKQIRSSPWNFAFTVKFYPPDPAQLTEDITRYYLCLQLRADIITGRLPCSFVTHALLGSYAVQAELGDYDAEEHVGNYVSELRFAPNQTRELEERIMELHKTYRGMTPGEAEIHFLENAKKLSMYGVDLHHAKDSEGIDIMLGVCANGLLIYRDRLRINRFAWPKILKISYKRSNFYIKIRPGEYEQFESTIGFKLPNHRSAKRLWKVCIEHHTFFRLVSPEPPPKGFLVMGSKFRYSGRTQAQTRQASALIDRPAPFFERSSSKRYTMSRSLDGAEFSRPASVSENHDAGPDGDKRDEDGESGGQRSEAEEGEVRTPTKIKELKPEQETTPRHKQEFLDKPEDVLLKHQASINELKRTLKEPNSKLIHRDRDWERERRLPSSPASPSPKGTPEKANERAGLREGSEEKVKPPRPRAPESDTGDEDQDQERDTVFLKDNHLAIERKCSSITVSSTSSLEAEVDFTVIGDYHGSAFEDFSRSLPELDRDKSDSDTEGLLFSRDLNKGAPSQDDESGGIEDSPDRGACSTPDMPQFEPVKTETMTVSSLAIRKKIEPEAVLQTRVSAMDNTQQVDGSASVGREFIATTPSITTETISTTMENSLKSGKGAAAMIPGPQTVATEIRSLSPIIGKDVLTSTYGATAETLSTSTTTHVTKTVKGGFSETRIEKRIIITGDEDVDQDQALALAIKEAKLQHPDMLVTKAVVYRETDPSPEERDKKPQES
UniProt Q9BQ52: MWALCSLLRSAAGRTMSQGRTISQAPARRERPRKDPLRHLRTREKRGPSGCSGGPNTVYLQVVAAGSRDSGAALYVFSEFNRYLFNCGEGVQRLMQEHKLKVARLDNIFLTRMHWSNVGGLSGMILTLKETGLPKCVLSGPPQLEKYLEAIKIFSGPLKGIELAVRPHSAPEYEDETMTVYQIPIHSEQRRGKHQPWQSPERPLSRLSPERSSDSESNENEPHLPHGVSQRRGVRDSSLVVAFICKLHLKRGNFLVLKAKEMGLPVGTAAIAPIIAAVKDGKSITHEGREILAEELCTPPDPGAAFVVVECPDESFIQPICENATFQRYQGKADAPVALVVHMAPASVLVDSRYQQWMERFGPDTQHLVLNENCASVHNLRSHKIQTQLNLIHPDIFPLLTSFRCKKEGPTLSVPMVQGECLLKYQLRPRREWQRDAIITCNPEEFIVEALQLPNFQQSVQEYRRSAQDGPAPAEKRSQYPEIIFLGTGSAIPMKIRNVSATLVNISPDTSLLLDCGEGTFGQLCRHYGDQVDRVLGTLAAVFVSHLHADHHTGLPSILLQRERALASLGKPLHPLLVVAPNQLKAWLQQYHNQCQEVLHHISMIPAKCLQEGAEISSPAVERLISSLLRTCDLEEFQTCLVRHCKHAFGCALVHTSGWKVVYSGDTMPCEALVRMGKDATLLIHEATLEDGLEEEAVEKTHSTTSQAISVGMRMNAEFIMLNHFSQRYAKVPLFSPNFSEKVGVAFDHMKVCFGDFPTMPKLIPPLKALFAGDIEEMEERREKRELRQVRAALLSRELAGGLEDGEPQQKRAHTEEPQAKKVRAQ
UniProt P23588, whole entry, looked up: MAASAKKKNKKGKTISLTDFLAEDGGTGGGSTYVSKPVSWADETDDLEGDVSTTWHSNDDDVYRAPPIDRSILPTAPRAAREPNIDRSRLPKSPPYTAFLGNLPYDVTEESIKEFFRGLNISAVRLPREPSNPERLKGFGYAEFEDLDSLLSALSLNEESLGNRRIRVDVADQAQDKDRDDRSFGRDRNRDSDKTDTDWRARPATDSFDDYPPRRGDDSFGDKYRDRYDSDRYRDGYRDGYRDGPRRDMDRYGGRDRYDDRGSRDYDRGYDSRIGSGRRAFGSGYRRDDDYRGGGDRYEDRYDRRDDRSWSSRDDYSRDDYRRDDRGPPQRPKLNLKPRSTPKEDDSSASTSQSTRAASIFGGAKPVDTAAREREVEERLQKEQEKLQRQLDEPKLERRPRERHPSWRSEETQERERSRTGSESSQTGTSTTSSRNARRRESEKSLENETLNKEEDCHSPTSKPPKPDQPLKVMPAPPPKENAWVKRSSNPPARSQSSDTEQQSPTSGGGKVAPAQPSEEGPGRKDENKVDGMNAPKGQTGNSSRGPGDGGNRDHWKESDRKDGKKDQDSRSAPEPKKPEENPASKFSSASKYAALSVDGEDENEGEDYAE
UniProt O60841: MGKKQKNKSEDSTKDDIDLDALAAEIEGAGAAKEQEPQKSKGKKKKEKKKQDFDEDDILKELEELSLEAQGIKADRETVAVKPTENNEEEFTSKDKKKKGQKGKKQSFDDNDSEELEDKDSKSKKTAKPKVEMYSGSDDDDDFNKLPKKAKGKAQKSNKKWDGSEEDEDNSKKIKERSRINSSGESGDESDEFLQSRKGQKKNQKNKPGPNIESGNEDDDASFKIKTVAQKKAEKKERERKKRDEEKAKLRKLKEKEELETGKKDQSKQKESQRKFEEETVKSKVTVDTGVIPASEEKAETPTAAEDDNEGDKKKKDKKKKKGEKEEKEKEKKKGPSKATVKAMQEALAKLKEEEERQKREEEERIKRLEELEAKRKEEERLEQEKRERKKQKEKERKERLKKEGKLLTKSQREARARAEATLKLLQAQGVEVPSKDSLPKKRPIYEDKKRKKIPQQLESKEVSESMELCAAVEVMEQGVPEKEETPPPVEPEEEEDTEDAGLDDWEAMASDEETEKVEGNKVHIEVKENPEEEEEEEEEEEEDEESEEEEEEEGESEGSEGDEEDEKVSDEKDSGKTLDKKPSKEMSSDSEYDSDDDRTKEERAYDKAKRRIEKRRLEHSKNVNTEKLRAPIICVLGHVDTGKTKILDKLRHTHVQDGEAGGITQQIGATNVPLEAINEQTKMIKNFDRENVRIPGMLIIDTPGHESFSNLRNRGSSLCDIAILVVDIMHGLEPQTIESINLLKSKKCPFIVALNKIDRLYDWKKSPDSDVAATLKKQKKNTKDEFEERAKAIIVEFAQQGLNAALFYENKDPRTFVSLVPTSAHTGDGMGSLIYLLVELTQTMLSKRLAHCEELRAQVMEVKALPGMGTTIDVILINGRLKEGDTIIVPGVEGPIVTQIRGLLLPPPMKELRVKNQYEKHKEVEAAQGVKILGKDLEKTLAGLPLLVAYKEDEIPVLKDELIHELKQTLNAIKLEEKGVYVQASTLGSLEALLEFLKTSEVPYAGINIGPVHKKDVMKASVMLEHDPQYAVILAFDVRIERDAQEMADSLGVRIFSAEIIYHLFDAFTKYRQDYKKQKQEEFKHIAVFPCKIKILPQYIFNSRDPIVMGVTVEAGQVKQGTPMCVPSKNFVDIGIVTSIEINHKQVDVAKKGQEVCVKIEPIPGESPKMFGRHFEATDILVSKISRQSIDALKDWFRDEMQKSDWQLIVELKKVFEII
UniProt O95834: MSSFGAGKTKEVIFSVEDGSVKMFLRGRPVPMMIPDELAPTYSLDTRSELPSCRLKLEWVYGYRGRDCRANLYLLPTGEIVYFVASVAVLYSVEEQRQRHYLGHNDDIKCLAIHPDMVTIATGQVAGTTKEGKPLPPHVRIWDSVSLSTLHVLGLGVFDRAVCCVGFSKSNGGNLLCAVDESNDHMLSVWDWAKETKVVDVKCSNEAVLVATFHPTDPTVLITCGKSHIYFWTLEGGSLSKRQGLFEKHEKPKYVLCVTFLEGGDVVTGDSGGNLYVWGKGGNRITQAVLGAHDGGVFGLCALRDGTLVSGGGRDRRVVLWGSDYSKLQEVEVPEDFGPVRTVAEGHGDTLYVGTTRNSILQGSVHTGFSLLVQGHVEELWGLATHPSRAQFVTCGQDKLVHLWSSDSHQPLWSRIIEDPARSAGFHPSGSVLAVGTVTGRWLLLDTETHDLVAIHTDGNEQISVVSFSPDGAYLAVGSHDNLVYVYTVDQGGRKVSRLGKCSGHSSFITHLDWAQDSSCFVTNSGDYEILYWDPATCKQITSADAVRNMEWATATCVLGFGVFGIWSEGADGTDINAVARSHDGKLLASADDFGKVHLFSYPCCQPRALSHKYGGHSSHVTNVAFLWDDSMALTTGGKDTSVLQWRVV
UniProt Q8NFI3: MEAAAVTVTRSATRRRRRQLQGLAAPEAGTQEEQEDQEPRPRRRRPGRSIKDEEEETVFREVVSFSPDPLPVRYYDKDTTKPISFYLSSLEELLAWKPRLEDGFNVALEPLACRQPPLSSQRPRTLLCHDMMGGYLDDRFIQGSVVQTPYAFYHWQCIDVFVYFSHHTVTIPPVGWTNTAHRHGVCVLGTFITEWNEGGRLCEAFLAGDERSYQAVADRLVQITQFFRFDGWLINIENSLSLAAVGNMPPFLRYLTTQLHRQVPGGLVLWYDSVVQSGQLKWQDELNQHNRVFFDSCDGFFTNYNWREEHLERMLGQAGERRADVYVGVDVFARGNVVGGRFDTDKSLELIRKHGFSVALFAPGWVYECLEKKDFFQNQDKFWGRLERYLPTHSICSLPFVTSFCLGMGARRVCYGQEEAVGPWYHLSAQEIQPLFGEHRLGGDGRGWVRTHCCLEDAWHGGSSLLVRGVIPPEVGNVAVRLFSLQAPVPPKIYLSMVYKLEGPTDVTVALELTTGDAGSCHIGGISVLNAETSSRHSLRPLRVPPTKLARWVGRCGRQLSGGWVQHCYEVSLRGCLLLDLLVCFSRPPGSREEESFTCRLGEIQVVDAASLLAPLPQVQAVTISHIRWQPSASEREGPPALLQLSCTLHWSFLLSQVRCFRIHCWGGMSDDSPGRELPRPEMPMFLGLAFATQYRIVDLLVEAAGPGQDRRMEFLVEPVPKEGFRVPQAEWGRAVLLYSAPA
UniProt Q13144, whole entry, looked up: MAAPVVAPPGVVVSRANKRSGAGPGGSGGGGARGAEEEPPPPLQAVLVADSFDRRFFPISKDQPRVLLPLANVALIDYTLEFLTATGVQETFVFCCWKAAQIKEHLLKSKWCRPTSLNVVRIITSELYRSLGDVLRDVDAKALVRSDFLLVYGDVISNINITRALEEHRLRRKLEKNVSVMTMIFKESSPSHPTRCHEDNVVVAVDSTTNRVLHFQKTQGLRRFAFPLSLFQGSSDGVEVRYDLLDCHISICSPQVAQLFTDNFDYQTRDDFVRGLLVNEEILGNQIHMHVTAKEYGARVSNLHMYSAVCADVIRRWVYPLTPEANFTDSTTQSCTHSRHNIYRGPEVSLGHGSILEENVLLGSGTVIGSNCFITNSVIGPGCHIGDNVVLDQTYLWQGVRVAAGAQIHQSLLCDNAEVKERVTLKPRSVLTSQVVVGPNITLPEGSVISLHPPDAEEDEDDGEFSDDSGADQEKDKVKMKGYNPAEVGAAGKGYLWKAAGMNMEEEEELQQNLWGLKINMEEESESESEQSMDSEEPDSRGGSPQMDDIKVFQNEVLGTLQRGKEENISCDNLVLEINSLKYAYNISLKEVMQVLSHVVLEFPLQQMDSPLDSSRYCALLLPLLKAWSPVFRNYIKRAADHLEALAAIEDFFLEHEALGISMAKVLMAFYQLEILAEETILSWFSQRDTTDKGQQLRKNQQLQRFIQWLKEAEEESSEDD
UniProt Q32P44: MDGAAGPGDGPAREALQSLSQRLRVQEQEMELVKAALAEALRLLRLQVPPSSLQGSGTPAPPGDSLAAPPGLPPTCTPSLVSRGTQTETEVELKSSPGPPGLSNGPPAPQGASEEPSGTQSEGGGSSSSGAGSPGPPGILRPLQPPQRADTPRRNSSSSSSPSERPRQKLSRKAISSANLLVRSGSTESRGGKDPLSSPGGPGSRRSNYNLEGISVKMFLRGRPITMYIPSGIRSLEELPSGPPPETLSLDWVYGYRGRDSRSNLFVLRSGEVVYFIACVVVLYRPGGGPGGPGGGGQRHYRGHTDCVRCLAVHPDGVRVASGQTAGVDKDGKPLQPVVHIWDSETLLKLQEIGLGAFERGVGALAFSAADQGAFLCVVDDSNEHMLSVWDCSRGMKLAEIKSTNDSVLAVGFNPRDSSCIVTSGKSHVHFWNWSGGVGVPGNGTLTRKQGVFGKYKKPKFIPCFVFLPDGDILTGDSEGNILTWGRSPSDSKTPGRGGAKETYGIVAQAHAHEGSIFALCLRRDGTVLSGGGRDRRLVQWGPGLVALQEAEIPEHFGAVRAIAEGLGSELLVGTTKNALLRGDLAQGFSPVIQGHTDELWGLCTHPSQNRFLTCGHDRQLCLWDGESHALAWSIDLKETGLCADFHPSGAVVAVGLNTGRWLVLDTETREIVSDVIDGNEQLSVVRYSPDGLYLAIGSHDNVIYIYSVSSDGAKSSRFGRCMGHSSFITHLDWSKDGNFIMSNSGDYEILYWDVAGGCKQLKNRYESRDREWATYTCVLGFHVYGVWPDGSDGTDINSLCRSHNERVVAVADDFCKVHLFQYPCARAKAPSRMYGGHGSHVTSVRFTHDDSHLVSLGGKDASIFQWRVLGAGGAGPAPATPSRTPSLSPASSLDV

This is one part of the list.

Compound in the test: COC(=O)[C@H](CCSC)NC(=O)C1=C(C=C(C=C1)NC[C@H](CS)N)C2=CC=CC=C2
Kind of test: log2 fold change, soluble protein after heating vs DMSO (PISA); higher = thermal stabilisation; K562 lysate, 10 uM; active = over 0.2 and 3.5 SD of the protein, either way, in both replicates (recomputed). The method, boiled down: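 Values give the log-two fold change in thermal stability against solvent controls, from duplicates. Crude K562 extract at 1 mg/mL protein, made by dounce homogenisation in PBS pH 7.4 with 1 mM MgCl2, was treated with 10 μM compound for 30 min. After 3 min heating across 48°C-58°C, aliquots were pooled, adjusted to 0.5% NP-40 at 4°C and centrifuged at 21,000xg for 90 min. The supernatant was measured by TMTpro 16plex LC-MS/MS with channel sums equalised.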
As to EPB41L1 (UniProt Q9H4G0), the log2 fold change is inactive: 0.056.

In the case of ELAC2 (UniProt Q9BQ52), the log2 fold change is inactive: 0.028.

Consider EIF4B (UniProt P23588), for which the log2 fold change is inactive: -0.04.

As to EIF3F (UniProt O00303), the log2 fold change was inactive: 0.135.

On to EIF2D (UniProt P41214), for which the log2 fold change was inactive: 0.164.

For the target EMC2 (UniProt Q15006), the log2 fold change is inactive: 0.023.

In the case of EP300 (UniProt Q09472), the log2 fold change is inactive: 0.105.

Consider EIF5B (UniProt O60841), for which the log2 fold change was inactive: 0.031.

As to ERCC2 (UniProt P18074), the log2 fold change is inactive: 0.087.

For the target EMC10 (UniProt Q5UCC4), the log2 fold change was inactive: -0.113.

As to EML2 isoform 3 (UniProt O95834), the log2 fold change is inactive: 0.006.

Consider EMC8 (UniProt O43402), for which the log2 fold change is inactive: -0.025.

For the target EIF3D (UniProt O15371), the log2 fold change is inactive: 0.206.

In the case of ENGASE (UniProt Q8NFI3), the log2 fold change is inactive: -0.056.

Regarding EPS15L1 isoform 2 (UniProt Q9UBC2), the log2 fold change was inactive: -0.023.

As for EP400P1 isoform 6 (UniProt Q6ZTU2), the log2 fold change is inactive: 0.033.

In the case of ENTPD5 (UniProt O75356), the log2 fold change is inactive: 0.005.

For the target ELP6 (UniProt Q0PNE2), the log2 fold change was inactive: -0.113.

Take EIF2B5 (UniProt Q13144): the log2 fold change was inactive: 0.046.

As to EIF3G (UniProt O75821), the log2 fold change is inactive: -0.01.

ELOC (UniProt Q15369): the log2 fold change is inactive: 0.007.

As to EML3 (UniProt Q32P44), the log2 fold change is inactive: 0.039.

On to ELOA (UniProt Q14241), for which the log2 fold change is inactive: 0.062.
